These results are taken from patent US10251944B2, “Cancer vaccines” (Pfizer Inc., priority 2016, dated 2019).

Several values for one entry are separate records, joined by “and”; a condition that tells them apart may be missing. Identical values can stand only once. Further values from the same series stand in other lists.

The test system of this assay is TUBO tumor cells. Put plainly: Subcutaneous TUBO tumor growth in BALB-neuT mice. The format is in vivo. Details: key: tumor volume in mm3. Particulars: with control vaccine and isotype control monoclonal antibody, in mm³. As for the experimental part: BALB-neuT mice were implanted on study day 0 with TUBO tumor cells by subcutaneous injection. Mice were dosed with 200 mg/Kg of 3-(5-fluoro-1H-indol-3-yl)pyrrolidine-2,5-dione (IDO1 inhibitor) or vehicle twice daily from study day 7 using oral gavage. Comparator groups were sham dosed with vehicle from study day 7 onwards. Appropriated mice were immunized on study day 10 with 1e10 Viral Particles of an adenovirus vector engineered to express rat HER2 (rHER2) (rHER2 vaccine) or vector lacking the rHER2 transgene (control vaccine), by intramuscular injection. Subsequently, 250 ug of an anti-CTLA4 antibody (murine monoclonal antibody to CTLA-4, clone 9D9) or an IgG2 isotype control monoclonal antibody was injected subcutaneously in close proximity to lymph nodes draining the site of adenovirus vector injection. Every two weeks thereafter, mice were immunized with 100 ug of a DNA plasmid encoding rHER2 (rHER2 vaccine) or a DNA plasmid lacking the rHER2 transgene (control vaccine) by electroporation. Subsequent to the DNA plasmid administration, 250 ug of the anti-CTLA4 antibody was injected subcutaneously in close proximity to lymph nodes draining the site of DNA plasmid injection. To track tumor progression, subcutaneous tumor volumes were measured twice a week throughout the study. Animals with subcutaneous tumor volumes that reached 2000 mm3 or displaying irreversible signs of disease were euthanized.

`O=C1CC(c2c[nH]c3ccc(F)cc23)C(=O)N1` (centres unmarked) [001 inhibitor, 3-(5-fluoro-1H-indol-3-yl)pyrrolidine-2,5-dione]: the Subcutaneous tumor volumes is 27.80 and 21.87 and 32.40 and 18.45 and 21.99 and 36.46 and 21.11 and 15.78 and 34.61 and 12.22 and 14.78 and 20.72 and 28.62 (Study Day 7, individual animals, listed as IDO1 inhibitor); 50.27 and 28.63 and 52.20 and 24.65 and 50.36 and 46.02 and 29.32 and 42.34 and 66.59 and 21.18 and 19.13 and 51.22 and 33.59 (Study Day 11, individual animals, listed as IDO1 inhibitor); 66.16 and 35.08 and 54.92 and 44.31 and 85.94 and 39.75 and 31.22 and 43.83 and 99.08 and 27.42 and 36.76 and 53.21 and 62.59 (Study Day 14, individual animals, listed as IDO1 inhibitor); 340.52 and 268.88 and 441.62 and 676.89 (Study Day 42, individual animals, listed as IDO1 inhibitor); 660.63 and 604.23 and 818.67 and 719.57 and 909.66 and 696.77 and 782.22 and 933.81 and 997.91 and 431.11 and 345.63 and 682.81 and 1060.91 (Study Day 46, individual animals, listed as IDO1 inhibitor); 685.30 and 629.55 and 940.30 and 942.51 and 1045.76 and 917.68 and 1138.52 and 1124.52 and 1219.32 and 609.28 and 470.15 and 807.07 and 1164.50 (Study Day 49, individual animals, listed as IDO1 inhibitor). Besides, the Subcutaneous tumor volumes is 864.42 and 792.50 and 1373.25 and 1139.13 and 1614.31 and 1073.56 and 1288.73 and 1449.44 and 1275.84 and 735.98 and 547.89 and 1167.81 and 1618.54 (Study Day 53, individual animals, listed as IDO1 inhibitor); 943.28 and 1128.21 and 1630.88 and 1431.28 and 1471.68 and 1323.69 and 1631.81 and 1937.45 and 2064.17 and 952.77 and 893.91 and 1714.64 and 1754.98 (Study Day 56, individual animals, listed as IDO1 inhibitor); 1384.35 and 1450.47 and 1946.29 and 1653.35 and 1673.55 and 1107.86 and 928.10 and 1923.35 and 1918.84 (Study Day 60, individual animals, listed as IDO1 inhibitor); 1600.66 and 1652.48 and 2089.13 and 1682.01 and 1426.67 and 938.92 (Study Day 63, individual animals, listed as IDO1 inhibitor); 1776.61 and 1985.40 and 1982.89 and 1416.50 and 1198.20 (Study Day 66, individual animals, listed as IDO1 inhibitor); 2186.37 and 1974.53 and 1804.46 (Study Day 70, individual animals, listed as IDO1 inhibitor). Moreover, the Subcutaneous tumor volumes (Study Day 74, individual animals) was found to be 1816.96 and the Subcutaneous tumor volumes (Study Day 77, individual animals) came to 2039.55.
